From patent publication US20090304615A1, “TRICYCLIC COMPOUNDS AS MELANOGENESIS MODIFIERS AND USES THEREOF” (priority 2007, published 2009)
Counter-ions that a name gives are not always drawn.

Tested on: cultured murine melanocytes (melan-a)
Test: Melanin assay in cultured murine melanocytes (melan-a)
Format: cell-based
Conditions: Mus musculus; for IC50: read-out: IC50 range (μM)
Procedure: The Spectrum Collection library consisting of 2000 drug compounds or natural products was screened to identify novel pigmentation inhibitors or stimulators in cultured murine melanocytes (melan-a). Compounds were dissolved in dimethylsulfoxide (DMSO) to a final concentration of 10 mM. Screening was performed with cultured melanocytes in 24-well plates followed by melanin assay (see below). […] DMSO was used as a negative control and the widely used depigmenting agent, hydroquinone, was used as a positive control on every plate. […] All compounds were added at the indicated final concentrations. Cells were harvested after 72 hours of incubation, and melanin assay was performed. For further test and mechanism of action studies, the compounds were purchased from either Sigma or Microsoure. These compounds were dissolved in dimethylsulfoxide (DMSO) to a final concentration of 10 mM, and were tested for their effect on melanin synthesis at the indicated final concentrations. For the primary and secondary screening, cells were harvested and dissolved in 200 μl of 2N NaOH in 20% DMSO at 70° C. A 180-μl aliquot of the resulting solution was measured for absorbance at 490 nm. […] The lysates were centrifuged at 14,000 rpm for 10 minutes at 4° C. BCA protein assay kit (Pierce) was used to measure the protein concentrations of the supernatants, and bovine serum albumin was used as a standard. […] A 180-μl aliquot of the resulting solution was measured for absorbance at 490 nm. The melanin contents were normalized to the total amount of protein.

CN(C)CCC=C1c2ccccc2COc2ccccc21 (mixture of isomers) [compound 7, Doxepin hydrochloride]
IC50: 2.5 to 5 µM

CN(C)CCCN1c2ccccc2CCc2ccc(Cl)cc21 [compound 4, Clomipramine hydrochloride]
inhibition at 1 µM (72 h, read-out: % Inh. @ 1 μM): 50%
inhibition at 5 µM (72 h, read-out: % Inh. @ 5 μM): 64%
IC50: < 1 µM
